Test results as given in PubChem BioAssay AID1347423 (Functional Genomics Laboratory (NCATS/FGL), 2020).
The campaign covered roughly 52,000 sequences. About 210 (0.4%) were called active.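 Rule for the calls: active = gene whose silencing raises cell survival under the drug, median off-target-corrected z-score across its silencing RNAs 2 or more; inactive = the rest.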 Some of the results follow.

Test: Resistance to Poly (ADP-Ribose) Polymerase inhibitor: Gene Identification via Genome-wide siRNA Screen
Conditions: mouse BRCA2 R2336H ES cells, olaparib, CellTiter-Glo viability; hits give high values
Outline: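 Mouse BRCA2 R2336H ES cells were reverse-transfected with siRNA (20 nM final), treated at 48 h with 500 nM olaparib, and read by CellTiter-Glo after 72 h. Scores: MAD-based z per siRNA, median per gene, seed off-target correction.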

| Sequence | z-score |
| --- | --- |
| GGUAGAGAUGUACAUUUGGTT against Chrdl2 | inactive: -0.77 |
| GUGAAGAAAGCACUGUUGATT against Olfr978 | inactive: 0.281 |
| GGCUCUUUGGAGACCAUCATT against 4930432E11Rik | inactive: -0.702 |
| GGAAGGAUAUAAGACACAATT against Mpa2 | inactive: 0.111 |
| GGAGAACUUAAAGCACAAUTT against Plxnb1 | inactive: -0.891 |
| CCAAAGACCUUGGUCAUAATT against Tle3 | inactive: 0.328 |
| GGCUCAGUUUCGAAUUAAATT against Commd5 | inactive: 0.577 |
| GCAAGUUGUCAAAUCUAAATT against Tm4sf13 | inactive: 0.949 |
| GGGACAAGUGUUCUACUAUTT against Msra | inactive: 0.0589 |
| GUGGACAAGACCUUCCUGUTT against Cklfsf5 | inactive: 0.774 |
| GGCCUUAGGAAAAAAAAAGTT against Bad | inactive: 0.991 |
| GCACUCCACUUUUGUACACTT against Cdc42ep5 | inactive: 1.06 |
| GGAUCAAAUUAUGUCUUUGTT against Chuk | inactive: 1.01 |
| GGAGGAGACAGAGAUCAUUTT against Ruvbl2 | inactive: -2.11 |
| CCUGGAUGCAUGGUUAUUATT against F730023N20 | inactive: -0.187 |
| GCUAAGUUGGAAUUUCCACTT against 2500003M10Rik | inactive: 0.633 |
| CGAGUAGAGGACUUCUACATT against Olfml2a | inactive: -1.02 |
| GGUUAUCCGUGGUAACCAUTT against A130052D22 | inactive: 0.297 |
| GGUUGUGGUCUUUGUUCUGTT against Olfr923 | inactive: 1.36 |
| CGUGAUGAGUGAAAAUGAUTT against Cd34 | inactive: -0.184 |
| CCUGAUGUUCUCCUGUCUATT against Xcr1 | inactive: 0.519 |
| GCUUGGUAAAGAAAAACGATT against Xrcc5 | inactive: 0.297 |
| CCUGCACCAUAAGAAAUCUTT against Gm784 | inactive: 3.4 |
| GGAAGACUCACGGCUCAAATT against 1810023B24Rik | inactive: -1.36 |
| GGAGCUCUGUGAAUCUCUUTT against 2810433K01Rik | inactive: -2.04 |
| GCCCAAAGUACAUUUGGUGTT against 2810427I04Rik | inactive: 0.759 |

| Sequence | z-score |
| --- | --- |
| GGCCGUGGAAUUUUAGACATT against Mtrf1 | inactive: 1.15 |
| CGACAUUGUGAUUAUCCAGTT against NE | inactive: -0.584 |
| GGAACAUGAACACCAUCUGTT against Klk10 | inactive: -0.507 |
| CCAAGAUCCAGUUCAGUUATT against Oaz3 | inactive: 0.335 |
| GGGACUAACCUACUUAAUGTT against BC019776 | inactive: 0.393 |
| GCUAUCUCCACUCUGAGUCTT against 4633402N23Rik | inactive: -1.4 |
| GGCCAGAGCAUUUUCUUCATT against AI449441 | inactive: 0.469 |
| GGCGAGCUUAUCCAUGAUUTT against Ga17 | inactive: -2.2 |
| GGUGACAGUUGUUCACAAATT against 4933405O20Rik | inactive: 0.0458 |
| GGCUUUUUGUCUAACAAGUTT against 2410002O22Rik | inactive: -0.36 |
| GGCACUUUGGAUUAAUUGUTT against Pole4 | inactive: 0.929 |
| GGACAAGCAAGAGAUGCUUTT against Atp6v1h | inactive: 0.37 |
| GGUAGUGUUAACUAUAUGGTT against Hmgb3 | active: 1.85 |
| GGCAUCCAACUUCUUUAUGTT against Mrgpra7 | inactive: 0.0689 |
| GCAGAAGAUAGAGUAUGCATT against Myo1h | inactive: 1.22 |
| GGACUUAGCGGAUAAUGACTT against Nlgn3 | inactive: 1.95 |
| GGUGGACUCAUUCUAAUACTT against Nudt1 | inactive: 0.231 |
| GGAGUUCAGGUAUCCCUGATT against D7Ertd156e | inactive: -2.19 |
| GGGCAUAUAUUCAAGACUUTT against BC047207 | inactive: -0.791 |
| GUGCCCAGAGUCCUAUCCATT against Sprr2j | inactive: -1.8 |
| GGCUCAAAUACAGGAAAUUTT against BC018222 | inactive: -0.662 |
| GCAUUGUCAUGAUACAACATT against Fem1b | inactive: 0.992 |
| GGGACAAAUCUUUUGAUUATT against Impact | inactive: -0.97 |
| CCUCUGAUCGAAAGUCUAATT against Ccdc9 | inactive: -2.7 |
| GGAAUAUACAGUGAAGACATT against Sycp1 | inactive: 0.132 |
| CCUUUGAAAAAGCUUGCCATT against Ifrg15 | inactive: 0.381 |

| Sequence | z-score |
| --- | --- |
| CGGAGAACGACAUUUACAATT against Hnrpf | inactive: 0.456 |
| GGUCCACAGUACCACAUAATT against 5830405N20Rik | inactive: -2.65 |
| CCUAAUAUAGUUGAGGAUGTT against Ncoa6ip | inactive: -0.894 |
| GGGCGACUUAUUUUUUGUUTT against Zfp111 | inactive: 0.528 |
| GCAAGAUACUGACCACUAGTT against 4631426H08Rik | inactive: 1.31 |
| GCUAUUUUGGGACGAGUCATT against Col13a1 | inactive: -2.48 |
| GGACUUCAUCAAAGUCUUATT against Cyp11a1 | inactive: -1.45 |
| GGACAUCACUUGGAGACGATT against Capn10 | inactive: -0.766 |
| GGUUAAGAACUGUUCAGAUTT against Ifnar2 | inactive: 0.0293 |
| GGUCAUCUCCAAACCCUCCTT against Rbpsuh | inactive: -0.0176 |
| GGAGCUGAAUCAUUAUCUGTT against Rabep1 | inactive: 0.283 |
| GGAAAAUUAUCCUAGUGCUTT against Serpinb2 | inactive: -0.0948 |
| CCGGUGACUUGACUUACUATT against Man1b | inactive: 0.386 |
| GGAAGUCGACCUUAUAGUUTT against 4930507C10Rik | inactive: -0.49 |
| GAUACUGUCUACAAGCUUCTT against BC088983 | inactive: -0.513 |
| GGCUGUACAGUCAUGCAAGTT against Adamts5 | active: 2.62 |
| GAUGACUCGGGUCCGAGUATT against Mrpl14 | inactive: -0.516 |
| GCUUCAAGAACGAACUGUUTT against Bmp10 | inactive: 0.0167 |
| CGAGGCAAGCGAUGUCGAUTT against AI790326 | inactive: 0.461 |
| GGCUACGACAGAAAAGACUTT against Ict1 | inactive: 0.689 |
| GCCCAUGUGGACUUCUAUGTT against Spr | inactive: -1.05 |
| GGGUCAUGAAAAAACAUUATT against 1810044O22Rik | inactive: -0.443 |
| GGUCAGUCUACUUUUCCACTT against Tas2r108 | inactive: -0.732 |
| GGAACUCCUAGCACUGAAATT against 4932408F19Rik | inactive: -0.0292 |
| GGUAGGAUGAGUUGAAGAGTT against AF366264 | inactive: -0.526 |
| GGUUUGUAUCUUAAAUGCCTT against Tdpoz4 | inactive: 0.83 |

A run of entries from the list above, as a working copy:

| Sequence | z-score |
| --- | --- |
| GGAGUUCAGGUAUCCCUGATT against D7Ertd156e | inactive: -2.19 |
| GGGCAUAUAUUCAAGACUUTT against BC047207 | inactive: -0.791 |
| GUGCCCAGAGUCCUAUCCATT against Sprr2j | inactive: -1.8 |
| GGCUCAAAUACAGGAAAUUTT against BC018222 | inactive: -0.662 |
| GCAUUGUCAUGAUACAACATT against Fem1b | inactive: 0.992 |
| GGGACAAAUCUUUUGAUUATT against Impact | inactive: -0.97 |
| CCUCUGAUCGAAAGUCUAATT against Ccdc9 | inactive: -2.7 |
| GGAAUAUACAGUGAAGACATT against Sycp1 | inactive: 0.132 |
| CCUUUGAAAAAGCUUGCCATT against Ifrg15 | inactive: 0.381 |
| CGGAGAACGACAUUUACAATT against Hnrpf | inactive: 0.456 |
| GGUCCACAGUACCACAUAATT against 5830405N20Rik | inactive: -2.65 |
| CCUAAUAUAGUUGAGGAUGTT against Ncoa6ip | inactive: -0.894 |
| GGGCGACUUAUUUUUUGUUTT against Zfp111 | inactive: 0.528 |
| GCAAGAUACUGACCACUAGTT against 4631426H08Rik | inactive: 1.31 |
| GCUAUUUUGGGACGAGUCATT against Col13a1 | inactive: -2.48 |
| GGACUUCAUCAAAGUCUUATT against Cyp11a1 | inactive: -1.45 |
| GGACAUCACUUGGAGACGATT against Capn10 | inactive: -0.766 |
| GGUUAAGAACUGUUCAGAUTT against Ifnar2 | inactive: 0.0293 |
| GGUCAUCUCCAAACCCUCCTT against Rbpsuh | inactive: -0.0176 |
| GGAGCUGAAUCAUUAUCUGTT against Rabep1 | inactive: 0.283 |
| GGAAAAUUAUCCUAGUGCUTT against Serpinb2 | inactive: -0.0948 |
| CCGGUGACUUGACUUACUATT against Man1b | inactive: 0.386 |
| GGAAGUCGACCUUAUAGUUTT against 4930507C10Rik | inactive: -0.49 |
| GAUACUGUCUACAAGCUUCTT against BC088983 | inactive: -0.513 |
| GGCUGUACAGUCAUGCAAGTT against Adamts5 | active: 2.62 |
| GAUGACUCGGGUCCGAGUATT against Mrpl14 | inactive: -0.516 |
| GCUUCAAGAACGAACUGUUTT against Bmp10 | inactive: 0.0167 |
| CGAGGCAAGCGAUGUCGAUTT against AI790326 | inactive: 0.461 |
| GGCUACGACAGAAAAGACUTT against Ict1 | inactive: 0.689 |
| GCCCAUGUGGACUUCUAUGTT against Spr | inactive: -1.05 |
| GGGUCAUGAAAAAACAUUATT against 1810044O22Rik | inactive: -0.443 |
| GGUCAGUCUACUUUUCCACTT against Tas2r108 | inactive: -0.732 |

Remaining list, next part.

| Sequence | z-score |
| --- | --- |
| GGAAGAGAGGACCAUGAAGTT against Usp18 | active: 2.69 |
| GGUCUAGUAGGAUUUCUAUTT against Nid1 | inactive: 0.161 |
| GGGUGAAAAUGGCAUUGUUTT against Col1a2 | inactive: -0.199 |
| GGAUGCAUAUGAAUUUGCUTT against Brdt | inactive: -0.824 |
| GGUCCUGUCUAAAGCUCAATT against Efna5 | inactive: -1.9 |
| GCAGAUUGCUCAGAUUACCTT against Brip1 | inactive: 1.8 |
| CCUGUUGGCCAUUUCCUAGTT against Zdhhc21 | inactive: 0.386 |
| CCAGCCAGACUGAAAAAGCTT against Gm1574 | inactive: -0.156 |
| GGACUGAAGGAUGCCUCAATT against BC016201 | inactive: -0.788 |
| CCUUCCUUUACCGAUACUCTT against BC026996 | inactive: -0.449 |
| AUUCAACCUGUCAAUUGUCTT against Hist1h2ae | inactive: 0.653 |
| GGAAACACCAUGAAGAUGATT against Atpi | inactive: 0.185 |
| CCUAGAAAGUCUUGGUGGATT against BC048651 | inactive: 0.164 |
| GGUUGAUAGGAUAUGGUCCTT against 9830147P19Rik | inactive: 1.45 |
| GGUUCAAUAAGCACUUGGATT against Drpla | inactive: -1.05 |
| GGUCUGAGCCUUGUCUUUATT against Ipf1 | inactive: -0.695 |
| GGAAAAAAGUCAAGAAAGUTT against Fstl5 | inactive: -1.3 |
| GGAUCUGUGAGUUUGUAGCTT against D930030D11Rik | inactive: -0.481 |
| GGUCAAAUAGGGAACCUAGTT against B130050K08 | inactive: -0.566 |
| GGUGAUUGGUGUAAAAUCUTT against Gdi3 | inactive: 1.61 |
| GGUUUAGGGUCAAGAUAUUTT against Ttf2 | inactive: -0.208 |
| GGAAGAAGAAAAGAUUCUGTT against Ddx41 | inactive: -0.521 |
| GGAACUUUCUAAAGUGUUUTT against D13Wsu50e | inactive: 0.893 |
| GGAUAAGUCACAGGUCACUTT against 2300003C06Rik | inactive: 1.11 |
| GGGACUGGAUUGUUGUUGUTT against Slc40a1 | inactive: 0.255 |
| GAAACUUUGAGUCCUCCAGTT against 2610510B01Rik | inactive: 0.452 |
